{"source": "PubChem BioAssay AID1508600", "about": "(Functional Genomics Laboratory (NCATS/FGL), 2020)", "note": "In all, about 53,000 sequences went through this assay and about 3,700 (7%) were called active.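 Rule for the calls: active = gene knockdowns whose robust z-score for IL-1 alpha signal is at least 2 or at most -2, so actives lie on both sides; inactive = the rest.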 Some of the results follow."}
{"test": "Components of the Cytosolic LPS Sensing Pathway: Gene Identification via Genome-wide siRNA Screen;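 note: robust z of the log signal after scaling to non-targeting control siRNA wells of the plate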", "conditions": "RAW264.7 macrophages, IL-1a HTRF, actives lie on both sides, screened at 100 nM (by protocol), cells primed 5 h with Pam3CSK4 first", "procedure,_shortened": "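Read-out: IL-1a HTRF on supernatant, divided by plate negative-control median ×100, log-transformed and converted to robust z-score. Cells were RAW264.7 given 100 nM siRNA, Pam3CSK4-primed 5 hours, then LipidA-transfected 24 hour.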"}
{"sequence": "GAAGUCCACUGAACUUCUGTT against H3f3a", "z-score": "inactive: 0.856"}
{"sequence": "GGAAGAGGUCUUGAUCCACTT against Klhl22", "z-score": "inactive: -1"}
{"sequence": "GGAUGUAUGCCAAAGAAUUTT against Fmo5", "z-score": "inactive: -0.0456"}
{"sequence": "GGUUUAAGAAAAAAGGAGCTT against Rab43", "z-score": "inactive: -0.182"}
{"sequence": "GAAACUUAGGGAAACACUATT against Cux1", "z-score": "inactive: 0.129"}
{"sequence": "GGACUGAGGAGAGCAAUAUTT against Cts6", "z-score": "inactive: -1.29"}
{"sequence": "GGGUUAAUGCAGCUCACGUTT against Lrrtm1", "z-score": "inactive: 0.425"}
{"sequence": "CCAUUCAUUUUUGAUGACCTT against Tlr3", "z-score": "inactive: -0.144"}
{"sequence": "GGUUUUAGACAUUCAGAACTT against Ago4", "z-score": "inactive: 0.408"}
{"sequence": "GGAUGAUGAAAAAAAGAACTT against Fam228b", "z-score": "inactive: -0.058"}
{"sequence": "CGUGUUCUUGCUCAAGGAGTT against Rilp", "z-score": "inactive: -0.229"}
{"sequence": "GGAGAGACGUAAGAGGCGATT against Zrsr2", "z-score": "inactive: 0.0858"}
{"sequence": "GCAGUCUUCUUAGCUAUAATT against Zkscan2", "z-score": "inactive: -1.29"}
{"sequence": "CCGCAUUUCAGACAUAGGCTT against Olfr248", "z-score": "inactive: -0.729"}
{"sequence": "CGAGUUCGGUAUGAGUGGATT against Clptm1", "z-score": "inactive: -0.858"}
{"sequence": "GGGCAAUGAUUUAUACCAUTT against Atp5b", "z-score": "inactive: 0.257"}
{"sequence": "CGCGACAGAAUCAGUACAATT against Hnf4g", "z-score": "active: 2.17"}
{"sequence": "GGAGCAUCACUCUUAACAUTT against Krt71", "z-score": "inactive: 1.58"}
{"sequence": "AGGAAAGAAAAUAUGCUGATT against Cox17", "z-score": "inactive: 1.12"}
{"sequence": "GGACUCUUUUCUACGUGGATT against Klhl1", "z-score": "active: 2.54"}
{"sequence": "GGACAGUAGUUCUUUAUCUTT against Gpalpp1", "z-score": "inactive: -0.815"}
{"sequence": "GGACGCAGACAGGACAAAATT against Parp2", "z-score": "active: 2.16"}
{"sequence": "GGUGAAAUUUGUCAUGGUCTT against Trappc2l", "z-score": "inactive: -0.909"}
{"sequence": "GGGACAACACAUUAACUUATT against Uckl1", "z-score": "inactive: 1.41"}
{"sequence": "CCUUGUUGUUUGUCUCGACTT against Ern1", "z-score": "inactive: -1.21"}
{"sequence": "CCUGCUGGUAUAGAGUAUGTT against Eps8l2", "z-score": "inactive: -0.172"}
{"sequence": "GGACUAGAAGAUCUACACUTT against Olfr67", "z-score": "inactive: -0.921"}
{"sequence": "CGACCACAUUAUUGGGUUUTT against Senp8", "z-score": "active: 2.62"}
{"sequence": "CGCAGGUAUACAGGACUGCTT against Rhox8", "z-score": "active: 2.33"}
{"sequence": "GGAUACACUGAUACUAUACTT against Pwp2", "z-score": "inactive: 0.403"}
{"sequence": "GGGACUGUACUCAUUUCUATT against Rnf138rt1", "z-score": "inactive: -0.67"}
{"sequence": "GCUGCUUGUUAAGCUUUUUTT against Nelfcd", "z-score": "inactive: -0.947"}
{"sequence": "CCCAAGUGGUAAGAUUGGUTT against Rps3", "z-score": "inactive: 0.123"}
{"sequence": "GGAAGCAUUGAUUUUCAUCTT against Prok2", "z-score": "inactive: 1.82"}
{"sequence": "CCCUUAGGGAGUGCUGUGATT against Gc", "z-score": "inactive: -1.85"}
{"sequence": "GGAAUGGUAGGAAUUCUUCTT against Yipf5", "z-score": "inactive: 0.418"}
{"sequence": "GGACCACAGGGUCAAUUUCTT against Icam5", "z-score": "inactive: -0.0684"}
{"sequence": "CCAUACCGAUCAAAUUCCCTT against Pfn2", "z-score": "inactive: -0.596"}
{"sequence": "GGGACAUGGGAAGAACUCUTT against Gpr87", "z-score": "inactive: -0.674"}
{"sequence": "CCAGUAAGUUGCAUUCGAATT against Defb8", "z-score": "inactive: 0.675"}
{"sequence": "GGAAAGGAAGAAGAAAUGATT against Rab13", "z-score": "inactive: -0.578"}
{"sequence": "GGCAGAAUAAUAAUCCACATT against Ovol1", "z-score": "inactive: -0.0992"}
{"sequence": "CCUAGGGUAUUCAAUCAUGTT against Nfya", "z-score": "inactive: -0.908"}
{"sequence": "GGGUUUUUUUUUCCUUGAATT against Smndc1", "z-score": "inactive: -0.313"}
{"sequence": "GCUAAGAACAUUCACAUAATT against Pon3", "z-score": "inactive: -0.293"}
{"sequence": "GCCUUUAGUUGGUUUAGUATT against Zfp799", "z-score": "inactive: 0.0447"}
{"sequence": "GGAAGACGAAUUCUUAAGUTT against H2-M10.6", "z-score": "inactive: 0.0529"}
{"sequence": "GGACCGUCUGUCCUUUGUCTT against Nectin2", "z-score": "inactive: 0.618"}
{"sequence": "CGUUGUCAUUCACAAGUGATT against Tmprss11e", "z-score": "active: 3.02"}
{"sequence": "CGUACCAGAUGAGCUAAGUTT against Zfp513", "z-score": "active: 2.56"}
{"sequence": "CCAUAGAGAGUGCAGGUGATT against Mrpl39", "z-score": "inactive: 0.677"}
{"sequence": "GGAUAUUUGCUUCUUUCACTT against A330008L17Rik", "z-score": "inactive: 0.596"}
{"sequence": "GGCAACAUCAAAGAAAGGATT against Rad51b", "z-score": "inactive: -0.0241"}
{"sequence": "GGCUCUCCAACUGUAUGAATT against Hexdc", "z-score": "inactive: 1.53"}
{"sequence": "GCUCCUACAGAGAAUAAGATT against Eny2", "z-score": "inactive: -1.7"}
{"sequence": "GGAAGAUACAAGUCUUUUUTT against Akap12", "z-score": "inactive: 1.85"}
{"sequence": "GCGGCUACGUGUUUGACUATT against Csnk1g2", "z-score": "inactive: -0.735"}
{"sequence": "GGAGAUUGUGAGAGCCAUGTT against Kcnab3", "z-score": "inactive: -0.753"}
{"sequence": "GGAAGAUUUUUCAAGAAAGTT against Dcun1d5", "z-score": "inactive: 0.386"}
{"sequence": "GGACUACAUAAACUUGUACTT against Nme5", "z-score": "inactive: -1.03"}
{"sequence": "GGGCUGUCUAAGAAUGCAATT against Nlrp14", "z-score": "active: -2.08"}
{"sequence": "GGAUGAUGGAGGGAAACUUTT against Fam221a", "z-score": "inactive: -0.357"}
{"sequence": "CCAAGAGAUUGCUAAUUGCTT against Runx1t1", "z-score": "inactive: -0.695"}
{"sequence": "GGUGGUAGAACCACUGAAGTT against Pxk", "z-score": "inactive: 0.673"}
{"sequence": "GGCACUCCUUCUCAGUUGCTT against Chek2", "z-score": "inactive: -0.891"}
{"sequence": "GCAAAUAUUACCUGAAAGUTT against Zbtb48", "z-score": "inactive: 0.0124"}
{"sequence": "GGCCUUAGUAUUCUGCCUCTT against Nuak1", "z-score": "inactive: 0.395"}
{"sequence": "GGACCCUCCAACUGUAAAUTT against Meg3", "z-score": "inactive: 0.3"}
{"sequence": "CGGCGACUUCUUCAGCUAUTT against Aldh2", "z-score": "inactive: 0.774"}
{"sequence": "GGAGAAGAAGCAGAGAGAATT against Ccdc61", "z-score": "inactive: 0.181"}
{"sequence": "GCGAUAGAAGCACUCCAAGTT against Bub1b", "z-score": "inactive: -0.485"}
{"sequence": "CCCUUCACAACUUCUUAAUTT against Olfr872", "z-score": "inactive: 1.4"}
{"sequence": "GCUUCGUAAAGUUUGCACUTT against Exosc10", "z-score": "inactive: 0.112"}
{"sequence": "GGUCAUUGAUCUCAGCAACTT against Optc", "z-score": "inactive: -0.427"}
{"sequence": "CCAGCCUCUUCUAAUACACTT against Preb", "z-score": "inactive: -0.413"}
{"sequence": "GCUGCUACGCCAAACUUAATT against Ssx2ip", "z-score": "inactive: -0.202"}
{"sequence": "GCCAUGUACUCCUUACUGGTT against Mrc1", "z-score": "inactive: -0.068"}
{"sequence": "GGAUGACAGUGGGAAGAAGTT against Rgp1", "z-score": "inactive: -1.22"}
{"sequence": "GGCAACUCAUGAACUCUCGTT against Tifab", "z-score": "inactive: 1.32"}
{"sequence": "GGAUAUAUACACGGAGAACTT against Nod2", "z-score": "inactive: -0.675"}
{"sequence": "CCUAGGGACAUUGGUUAUUTT against Sema4f", "z-score": "active: 2.16"}
{"sequence": "GGGAAAUCUAUUUUUGUGATT against Mob3c", "z-score": "inactive: -1.77"}
{"sequence": "CCCACCUAAAGAGAACAAATT against Bbof1", "z-score": "inactive: -0.87"}
{"sequence": "CCGUGUGGUCUGAUAAAAGTT against Fbxl8", "z-score": "inactive: -0.714"}
{"sequence": "GGGUAUUCUGUACCCAGUGTT against Cpsf4l", "z-score": "inactive: -0.273"}
{"sequence": "GCUACUUCGGGAAUUUUACTT against Ttc21a", "z-score": "inactive: -1.16"}
{"sequence": "GGUUUCUGAUUUCAUCAGUTT against Prl5a1", "z-score": "inactive: 0.35"}
{"sequence": "GCAGCACCUAAUGGGCAAATT against Bcl9l", "z-score": "inactive: 1.86"}
{"sequence": "GCUCGUACAAUGCAUUGCCTT against Thnsl1", "z-score": "inactive: -0.474"}
{"sequence": "GGAGAUUAGUUACUUCCAGTT against Slc1a7", "z-score": "active: 3.5"}
{"sequence": "GGACCAGCUGAUAGAAGUCTT against Ap3b2", "z-score": "inactive: 1.81"}
{"sequence": "GGACGACAAUCGACAAUCGTT against Acta1", "z-score": "inactive: -0.384"}
{"sequence": "GGGAAAAGAACUUGCAUGUTT against Tmsb4x", "z-score": "inactive: -0.352"}
{"sequence": "GGCACUUUCGGGAAUUCACTT against Nup160", "z-score": "active: -2.5"}
{"sequence": "GGAAGAGGAGGAAAACUUGTT against Fam135b", "z-score": "inactive: -0.653"}
{"sequence": "GGGACUUCUUGUGAAUGGATT against Mobp", "z-score": "inactive: 0.993"}
{"sequence": "CGAAGUGUGGCUGAUUCAGTT against Hebp2", "z-score": "inactive: 0.547"}
{"sequence": "GGAAUACCUGCUUUUAUUUTT against Timmdc1", "z-score": "inactive: 0.947"}
{"sequence": "CCCUUGAAGAUCACUUAGCTT against Apln", "z-score": "inactive: 0.284"}
{"sequence": "GCUGUUUCUACAUCAUCUATT against Nup210", "z-score": "inactive: 0.739"}
{"sequence": "GCUUAAAUGUUCUCUGUUCTT against Adgrd1", "z-score": "inactive: -0.601"}
{"sequence": "GGCACUCAAUAAAUAUUUGTT against Tubb5", "z-score": "inactive: -0.356"}
{"sequence": "GGUGCUAAUCCCAAUUUGATT against Cdkn2c", "z-score": "inactive: 0.262"}
{"sequence": "GGUGUACCAAGCUGUGACATT against Rgmb", "z-score": "inactive: -0.401"}
{"sequence": "GGGAAUUGAUGAAAGCUCUTT against Gigyf2", "z-score": "inactive: -0.369"}
{"sequence": "CCUGAAGGGUCUGGCAAAATT against Zfp804a", "z-score": "inactive: 0.66"}
{"sequence": "CCCACUGCUCUAUUCAACUTT against Olfr484", "z-score": "inactive: -0.661"}
